# PubChem BioAssay AID1508597 | Cure First – 2020
# Assay: 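Genes whose silencing sensitises or protects ovarian cancer cells against rucaparib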 (primary screen)
# Cells: human ovarian carcinoma lines grown from tumours: OCI-P5x (papillary serous) and OCI-C5x (clear cell)
# Reagent: siRNA pool against human genes, 1.25 pmol siRNA per well
# Timing: 72 h or 96 h, depending on the cell culture
# Conditions: rucaparib 20 µM (about IC30) or vehicle, present until read-out
# Measurement: 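Luminescent ATP-based viability assay read 72 or 96 h after transfection, depending on culture, given as normalised percent viability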
# Direction: viability, normalised: higher = more viable cells remaining
# Rule for the call: 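Active when normalised viability falls below 80 percent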
# Meaning of the calls: active = viability under 80%; inactive = viability 80% or more
# In all, the deposit lists about 2,100 reagents; below is a part drawn at random. 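Calls flag viability under 80% in either arm, not effects specific to rucaparib; the reference for percent is not stated.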 A reagent listed more than once was tested more than once; the source does not tell the runs apart. The record does not give: the 100% reference.
Target gene,PubChem SID,rucaparib or vehicle,cell line,technical replicate,"viability, normalised (%)",outcome
MPP3 (MAGUK p55 scaffold protein 3),SID405528575,Rucaparib,OCI-C5x (clear cell),1,51.2,active
MPP3 (MAGUK p55 scaffold protein 3),SID405528575,Rucaparib,OCI-C5x (clear cell),2,50.2,active
MPP3 (MAGUK p55 scaffold protein 3),SID405528575,Rucaparib,OCI-C5x (clear cell),3,47.4,active
MPP3 (MAGUK p55 scaffold protein 3),SID405528575,Rucaparib,OCI-P5x (serous),1,47.5,active
MPP3 (MAGUK p55 scaffold protein 3),SID405528575,Rucaparib,OCI-P5x (serous),2,60.6,active
MPP3 (MAGUK p55 scaffold protein 3),SID405528575,Rucaparib,OCI-P5x (serous),3,74.2,active
MPP3 (MAGUK p55 scaffold protein 3),SID405528575,Vehicle,OCI-C5x (clear cell),1,54.7,active
MPP3 (MAGUK p55 scaffold protein 3),SID405528575,Vehicle,OCI-C5x (clear cell),2,38.2,active
MPP3 (MAGUK p55 scaffold protein 3),SID405528575,Vehicle,OCI-C5x (clear cell),3,36.7,active
MPP3 (MAGUK p55 scaffold protein 3),SID405528575,Vehicle,OCI-P5x (serous),1,69.4,active
MPP3 (MAGUK p55 scaffold protein 3),SID405528575,Vehicle,OCI-P5x (serous),2,54.7,active
MPP3 (MAGUK p55 scaffold protein 3),SID405528575,Vehicle,OCI-P5x (serous),3,55.2,active
"PPM1D (protein phosphatase, Mg2+/Mn2+ dependent 1D)",SID405526339,Rucaparib,OCI-C5x (clear cell),1,70.1,active
"PPM1D (protein phosphatase, Mg2+/Mn2+ dependent 1D)",SID405526339,Rucaparib,OCI-C5x (clear cell),2,71.8,active
"PPM1D (protein phosphatase, Mg2+/Mn2+ dependent 1D)",SID405526339,Rucaparib,OCI-C5x (clear cell),3,77.2,active
"PPM1D (protein phosphatase, Mg2+/Mn2+ dependent 1D)",SID405526339,Rucaparib,OCI-P5x (serous),1,96.1,inactive
"PPM1D (protein phosphatase, Mg2+/Mn2+ dependent 1D)",SID405526339,Rucaparib,OCI-P5x (serous),2,111,inactive
"PPM1D (protein phosphatase, Mg2+/Mn2+ dependent 1D)",SID405526339,Rucaparib,OCI-P5x (serous),3,102,inactive
"PPM1D (protein phosphatase, Mg2+/Mn2+ dependent 1D)",SID405526339,Vehicle,OCI-C5x (clear cell),1,72.8,active
"PPM1D (protein phosphatase, Mg2+/Mn2+ dependent 1D)",SID405526339,Vehicle,OCI-C5x (clear cell),2,79.5,active
"PPM1D (protein phosphatase, Mg2+/Mn2+ dependent 1D)",SID405526339,Vehicle,OCI-C5x (clear cell),3,65.2,active
"PPM1D (protein phosphatase, Mg2+/Mn2+ dependent 1D)",SID405526339,Vehicle,OCI-P5x (serous),1,97.3,inactive
"PPM1D (protein phosphatase, Mg2+/Mn2+ dependent 1D)",SID405526339,Vehicle,OCI-P5x (serous),2,82.4,inactive
"PPM1D (protein phosphatase, Mg2+/Mn2+ dependent 1D)",SID405526339,Vehicle,OCI-P5x (serous),3,106,inactive
PWWP3B (PWWP domain containing 3B),SID405527041,Rucaparib,OCI-C5x (clear cell),1,53.5,active
PWWP3B (PWWP domain containing 3B),SID405527041,Rucaparib,OCI-C5x (clear cell),2,53.2,active
PWWP3B (PWWP domain containing 3B),SID405527041,Rucaparib,OCI-C5x (clear cell),3,52.9,active
PWWP3B (PWWP domain containing 3B),SID405527041,Rucaparib,OCI-P5x (serous),1,53.3,active
PWWP3B (PWWP domain containing 3B),SID405527041,Rucaparib,OCI-P5x (serous),2,56.4,active
PWWP3B (PWWP domain containing 3B),SID405527041,Rucaparib,OCI-P5x (serous),3,62,active
PWWP3B (PWWP domain containing 3B),SID405527041,Vehicle,OCI-C5x (clear cell),1,53.3,active
PWWP3B (PWWP domain containing 3B),SID405527041,Vehicle,OCI-C5x (clear cell),2,62,active
PWWP3B (PWWP domain containing 3B),SID405527041,Vehicle,OCI-C5x (clear cell),3,53.1,active
PWWP3B (PWWP domain containing 3B),SID405527041,Vehicle,OCI-P5x (serous),1,63.5,active
PWWP3B (PWWP domain containing 3B),SID405527041,Vehicle,OCI-P5x (serous),2,61.4,active
PWWP3B (PWWP domain containing 3B),SID405527041,Vehicle,OCI-P5x (serous),3,71.9,active
BLM (BLM RecQ like helicase),SID405528032,Rucaparib,OCI-C5x (clear cell),1,83.2,inactive
BLM (BLM RecQ like helicase),SID405528032,Rucaparib,OCI-C5x (clear cell),1,66.5,active
BLM (BLM RecQ like helicase),SID405528032,Rucaparib,OCI-C5x (clear cell),2,48.5,active
BLM (BLM RecQ like helicase),SID405528032,Rucaparib,OCI-C5x (clear cell),2,80.8,inactive
BLM (BLM RecQ like helicase),SID405528032,Rucaparib,OCI-C5x (clear cell),3,50.2,active
BLM (BLM RecQ like helicase),SID405528032,Rucaparib,OCI-C5x (clear cell),3,83.7,inactive
BLM (BLM RecQ like helicase),SID405528032,Rucaparib,OCI-P5x (serous),1,55,active
BLM (BLM RecQ like helicase),SID405528032,Rucaparib,OCI-P5x (serous),1,164,inactive
BLM (BLM RecQ like helicase),SID405528032,Rucaparib,OCI-P5x (serous),2,57,active
BLM (BLM RecQ like helicase),SID405528032,Rucaparib,OCI-P5x (serous),2,158,inactive
BLM (BLM RecQ like helicase),SID405528032,Rucaparib,OCI-P5x (serous),3,56.4,active
BLM (BLM RecQ like helicase),SID405528032,Rucaparib,OCI-P5x (serous),3,155,inactive
BLM (BLM RecQ like helicase),SID405528032,Vehicle,OCI-C5x (clear cell),1,64,active
BLM (BLM RecQ like helicase),SID405528032,Vehicle,OCI-C5x (clear cell),1,37.5,active
BLM (BLM RecQ like helicase),SID405528032,Vehicle,OCI-C5x (clear cell),2,60.4,active
BLM (BLM RecQ like helicase),SID405528032,Vehicle,OCI-C5x (clear cell),2,41,active
BLM (BLM RecQ like helicase),SID405528032,Vehicle,OCI-C5x (clear cell),3,23.6,active
BLM (BLM RecQ like helicase),SID405528032,Vehicle,OCI-C5x (clear cell),3,86.4,inactive
BLM (BLM RecQ like helicase),SID405528032,Vehicle,OCI-P5x (serous),1,32.9,active
BLM (BLM RecQ like helicase),SID405528032,Vehicle,OCI-P5x (serous),1,131,inactive
BLM (BLM RecQ like helicase),SID405528032,Vehicle,OCI-P5x (serous),2,127,inactive
BLM (BLM RecQ like helicase),SID405528032,Vehicle,OCI-P5x (serous),2,48.2,active
BLM (BLM RecQ like helicase),SID405528032,Vehicle,OCI-P5x (serous),3,49.3,active
BLM (BLM RecQ like helicase),SID405528032,Vehicle,OCI-P5x (serous),3,126,inactive
